Reference: paper PMC8350375
Results are given in words; binding and its absence hold for the method and conditions named. Binding seen in cells or lysates may run through a third protein. Some results given as binding are weak or reduced against the parent protein; the word gives no strength.

By UniProt entry, the sequences of proteins in these tests, tags left out.
UniProt Q5M7T6: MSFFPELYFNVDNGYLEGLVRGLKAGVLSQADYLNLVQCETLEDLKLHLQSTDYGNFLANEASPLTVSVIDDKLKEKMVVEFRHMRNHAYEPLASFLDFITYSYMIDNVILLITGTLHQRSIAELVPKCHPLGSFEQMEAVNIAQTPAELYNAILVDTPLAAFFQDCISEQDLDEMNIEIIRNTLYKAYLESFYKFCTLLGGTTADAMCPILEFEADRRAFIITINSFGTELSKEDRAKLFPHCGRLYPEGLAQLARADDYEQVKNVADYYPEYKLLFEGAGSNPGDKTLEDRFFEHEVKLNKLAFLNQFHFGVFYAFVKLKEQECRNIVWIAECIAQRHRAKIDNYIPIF
UniProt P62814: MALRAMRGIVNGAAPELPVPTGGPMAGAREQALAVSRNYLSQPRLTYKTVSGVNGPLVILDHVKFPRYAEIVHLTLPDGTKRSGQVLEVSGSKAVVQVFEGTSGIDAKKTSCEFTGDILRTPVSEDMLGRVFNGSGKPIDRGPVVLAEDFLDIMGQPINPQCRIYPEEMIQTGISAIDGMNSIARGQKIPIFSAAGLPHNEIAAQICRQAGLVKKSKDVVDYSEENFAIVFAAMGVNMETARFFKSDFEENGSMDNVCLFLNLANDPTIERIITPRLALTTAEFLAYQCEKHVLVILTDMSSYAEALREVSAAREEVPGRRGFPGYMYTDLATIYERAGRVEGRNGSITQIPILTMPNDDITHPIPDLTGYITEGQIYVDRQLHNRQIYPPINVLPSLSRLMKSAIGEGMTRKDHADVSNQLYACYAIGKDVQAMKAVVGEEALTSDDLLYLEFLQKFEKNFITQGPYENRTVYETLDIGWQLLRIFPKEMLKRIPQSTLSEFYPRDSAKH
UniProt P62815: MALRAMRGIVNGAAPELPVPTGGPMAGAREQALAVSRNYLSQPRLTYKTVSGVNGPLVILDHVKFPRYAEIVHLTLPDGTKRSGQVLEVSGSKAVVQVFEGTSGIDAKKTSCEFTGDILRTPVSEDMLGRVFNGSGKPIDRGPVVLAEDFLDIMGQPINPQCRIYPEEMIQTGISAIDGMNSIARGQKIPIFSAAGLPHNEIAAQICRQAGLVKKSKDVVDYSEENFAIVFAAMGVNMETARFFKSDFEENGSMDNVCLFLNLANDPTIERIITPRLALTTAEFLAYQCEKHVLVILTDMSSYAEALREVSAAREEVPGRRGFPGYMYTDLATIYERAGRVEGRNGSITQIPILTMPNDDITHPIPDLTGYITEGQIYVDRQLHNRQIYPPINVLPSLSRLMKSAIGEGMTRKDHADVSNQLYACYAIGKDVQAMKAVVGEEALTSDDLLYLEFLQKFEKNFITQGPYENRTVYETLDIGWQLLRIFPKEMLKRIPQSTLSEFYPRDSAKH
UniProt P15920: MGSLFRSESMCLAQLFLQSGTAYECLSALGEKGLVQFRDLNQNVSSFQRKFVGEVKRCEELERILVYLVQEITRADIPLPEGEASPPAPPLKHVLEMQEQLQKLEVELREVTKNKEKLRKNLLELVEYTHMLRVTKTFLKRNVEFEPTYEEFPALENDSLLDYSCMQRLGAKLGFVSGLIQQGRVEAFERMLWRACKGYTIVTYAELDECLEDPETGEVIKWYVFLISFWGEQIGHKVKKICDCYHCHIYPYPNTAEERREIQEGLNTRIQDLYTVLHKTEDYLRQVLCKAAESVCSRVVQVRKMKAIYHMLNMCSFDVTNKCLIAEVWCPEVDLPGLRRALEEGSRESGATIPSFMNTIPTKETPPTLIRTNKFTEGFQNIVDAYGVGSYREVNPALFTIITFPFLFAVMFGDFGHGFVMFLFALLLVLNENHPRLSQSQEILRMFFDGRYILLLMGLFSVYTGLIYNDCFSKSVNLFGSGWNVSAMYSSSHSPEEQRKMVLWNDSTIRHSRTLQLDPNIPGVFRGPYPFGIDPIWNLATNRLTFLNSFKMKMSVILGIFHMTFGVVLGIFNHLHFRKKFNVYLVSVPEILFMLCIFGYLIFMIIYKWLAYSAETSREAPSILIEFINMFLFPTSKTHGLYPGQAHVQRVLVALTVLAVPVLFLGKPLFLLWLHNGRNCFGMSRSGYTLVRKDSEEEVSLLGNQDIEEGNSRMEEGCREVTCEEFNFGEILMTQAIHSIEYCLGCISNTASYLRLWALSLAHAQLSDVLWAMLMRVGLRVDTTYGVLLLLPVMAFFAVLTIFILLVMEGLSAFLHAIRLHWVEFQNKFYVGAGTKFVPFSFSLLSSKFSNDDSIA

What was measured:
[1] = target: v-ATPase d1 subunit (V0 subcomplex), rat heart (rat (endogenous in heart)) (UniProt Q5M7T6); assay: co-IP; endogenous proteins in rat heart lysates; IP against V1-B2, V0-d1 or mTOR, western blot for mTOR, V0-a2, V1-B2, V0-d1; rats on LFD, HFD or HFD/H-KLR (HFD decreased, H-KLR restored the co-IP)
[2] = target: v-ATPase B2 subunit (subunit of the cytoplasmic V1 subcomplex), HL-1 cells (mouse (endogenous in HL-1)) (UniProt P62814); assay: co-IP; endogenous proteins in HL-1 cell lysates; IP with antibodies against V0-d1, V1-B2 or mTORC1, western blot for mTORC1, V0-a2, V0-d1, V1-B2; cells cultured 24 h in Ctrl, HP, HP/4*KLR or HP/4*KLR/Rap medium (HP decreased, 4*KLR preserved the co-IP)

v-ATPase B2 subunit (V1 subcomplex), rat heart (from UniProt P62815 1-511)
binding [1]: binds

v-ATPase a2 subunit (subunit of the membrane-bound V0 subcomplex), HL-1 cells (from UniProt P15920 1-856)
binding [2]: binds
